## Assay results

The results are deposited in PubChem (AID893; NCATS, 2007).

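Recombinant human HSD17B10 (3-hydroxyacyl-CoA dehydrogenase type-2) enzyme, with activity tracked as NADH fluorescence build-up in a kinetic read.
Each compound was run as a 15-point series from about 0.0007 to 57 µM.
Fitted half-maximal potency (AC50) from the inhibition curve; a lower value means a more potent inhibitor. The record's title names HSD17B4; its protocol and target entry give this enzyme.
Active means a well-fitted inhibition curve with a large enough effect; inconclusive means a weak, poorly fitted or top-concentration-only effect.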

Values are in nM.
Only part of the assay is shown, chiefly results filed as inconclusive.
Potencies fitted to partial, single-point or poorly fitting curves are rough.

structure: CCCCn1c(CN2CCN(c3ccc(F)cc3)CC2)nc2c1c(=O)n(C)c(=O)n2C
Potency (nM): 39810
call: inconclusive
remark: inhibitor, single point

structure: COCCn1c(=N)c(C(=O)NCCc2ccc(OC)cc2)cc2c(=O)n3cccc(C)c3nc21
Potency (nM): 31622
call: inconclusive
remark: inhibitor, single point

structure: CCN1C(=O)c2cccc3c(S(=O)(=O)NCCCN4CCOCC4)ccc1c23
Potency (nM): 31622
call: inconclusive
remark: inhibitor, single point

structure: CN(C)c1ncc2nc(-c3cccc(C#N)c3)c(=O)n(C[C@H]3CCCO3)c2n1
Potency (nM): 25118
call: active

structure: Cc1ccc2nc3c(cc(C(=O)NCC4CCCO4)c(=N)n3CCCOC(C)C)c(=O)n2c1 (centres unmarked)
Potency (nM): 25118
call: active

structure: COc1ccc(C2=CC(c3ccc(OC)c(OC)c3)n3nnnc3N2)c(OC)c1 (centres unmarked)
Potency (nM): 39810
call: inconclusive
remark: inhibitor, single point

structure: O=C(c1ccc(F)cc1)C1CCN(CCn2c(=O)[nH]c3ccccc3c2=O)CC1
Potency (nM): 39810
call: inconclusive
remark: inhibitor, single point

structure: C=CCn1c(=N)c(C(=O)NCCCOC)cc2c(=O)n3cccc(C)c3nc21
Potency (nM): 3162
call: active

structure: O=c1c(-c2cc(F)cc(F)c2)nc2cnc(N3CCNCC3)nc2n1CCc1ccccc1
Potency (nM): 31622
call: inconclusive
remark: inhibitor, single point

structure: CCOC(=O)CC(=O)CSc1nc(-c2cccnc2)ccc1C#N
Potency (nM): 25118
call: active

structure: COc1ccc(-c2cc3ccc(OCc4nn[nH]n4)cc3oc2=O)cc1OC
Potency (nM): 31622
call: inconclusive
remark: inhibitor, single point

structure: COc1cc(C2C3CN(C)CC=C3C(C#N)=C(N)C2(C#N)C#N)ccc1OC(C)C (centres unmarked)
Potency (nM): 25118
call: active

structure: C[C@@]12C=CC(=O)C=C1CC[C@@H]1[C@@H]2[C@H](O)C[C@]2(C)[C@@H]1CC[C@]2(O)C(=O)CO
Potency (nM): 12589
call: inconclusive
remark: inhibitor, partial curve

structure: COc1cccc2cc(-c3nc(-c4cccs4)cs3)c(=O)oc12
Potency (nM): 39810
call: inconclusive
remark: inhibitor, single point

structure: COc1cc2c(cc1OC)C(c1cc3cc(OC)c(OC)cc3[nH]c1=O)N(C(=O)C1CC1)CC2 (centres unmarked)
Potency (nM): 25118
call: active

structure: CCN(CC)c1ccc(-c2nn3c(-c4ccccc4OC)nnc3s2)cc1
Potency (nM): 31622
call: active

structure: C=CCn1c(NC(=O)c2ccc(C)cc2)c(C#N)sc1=N
Potency (nM): 31622
call: inconclusive
remark: inhibitor, single point

structure: N#Cc1c(N)nc(SC2CCCCC2=O)c(C#N)c1-c1ccco1 (centres unmarked)
Potency (nM): 31622
call: active

structure: Cc1ccc([C@@H]2C3COCC=C3C(C#N)=C(N)C2(C#N)C#N)o1 (some centres unmarked)
Potency (nM): 31622
call: inconclusive
remark: inhibitor, single point

structure: COc1ccc(CNc2ncncc2-c2ccc(N(C)C)cc2)c(OC)c1
Potency (nM): 25118
call: inconclusive
remark: inhibitor, single point

structure: CCc1ccc2[nH]c(=O)c(CN(Cc3nnnn3C3CCCC3)C3CCCCC3)cc2c1
Potency (nM): 39810
call: inconclusive
remark: inhibitor, single point

structure: C=CCNC(=O)c1c(N)n(-c2cccc(S(N)(=O)=O)c2)c2nc3ccccc3nc12
Potency (nM): 25118
call: active

structure: COC(=O)[C@H]1C(OC)[C@@H](OC(=O)c2cc(OC)c(OC)c(OC)c2)C[C@@H]2CN3CCc4c([nH]c5cc(OC)ccc45)[C@H]3C[C@H]21 (some centres unmarked)
Potency (nM): 15848
call: inconclusive
remark: inhibitor, partial curve

structure: CCn1nc(C)c(/C=C2\CCCC3=C2OC(N)=C(C#N)C3c2c(C)nn(CC)c2C)c1C (centres unmarked)
Potency (nM): 39810
call: inconclusive
remark: inhibitor, single point

structure: COc1cc(/C=C/C(=O)/C=C(O)/C=C/c2ccc(O)c(OC)c2)ccc1O
Potency (nM): 25118
call: inconclusive
remark: inhibitor, single point

structure: CC(C)C(c1nnnn1Cc1ccccc1)N(CCCO)Cc1cc2cc3c(cc2[nH]c1=O)OCO3 (centres unmarked)
Potency (nM): 31622
call: inconclusive
remark: inhibitor, single point

structure: Cc1ccc2nc3ccc(N4CCCC4)nn3c(=O)c2c1
Potency (nM): 31622
call: active

structure: O=C(CN1C(=O)c2cccc3cccc1c23)Nc1ccc(S(=O)(=O)N2CCOCC2)cc1
Potency (nM): 39810
call: inconclusive
remark: inhibitor, single point

structure: O=c1c(-c2cccs2)nc2cnc(Oc3cccc(Cl)c3)nc2n1C[C@H]1CCCO1
Potency (nM): 25118
call: active

structure: COc1cccc(C2C3CN(C)CC=C3C(C#N)=C(N)C2(C#N)C#N)c1OC (centres unmarked)
Potency (nM): 39810
call: inconclusive
remark: inhibitor, single point

structure: COc1ccc(Oc2ncc3nc(-c4ccc(Cl)cc4)c(=O)n(C4CC4)c3n2)cc1
Potency (nM): 39810
call: inconclusive
remark: inhibitor, single point

structure: O=C1Nc2ccc(S(=O)(=O)N3CCCCCC3)c3cccc1c23
Potency (nM): 31622
call: inconclusive
remark: inhibitor, single point

structure: COc1ccc2nc3c(cc2c1)c(NC(=O)c1cccs1)nn3CC(C)C
Potency (nM): 31622
call: inconclusive
remark: inhibitor, single point

structure: COc1cccc(Nc2ncc3nc(C)c(=O)n(Cc4cccs4)c3n2)c1
Potency (nM): 31622
call: inconclusive
remark: inhibitor, single point

structure: O=C(c1ccco1)[C@@H]1[C@@H]2C(=O)N(c3ccc(Br)cc3)C(=O)[C@@H]2C2c3ccccc3C=CN21 (some centres unmarked)
Potency (nM): 25118
call: inconclusive
remark: inhibitor, single point

structure: COCCn1c(=O)cnc2cnc(N3CCNCC3)nc21
Potency (nM): 31622
call: active

structure: COC(=O)C1=COC(C)C2CN3CCc4c([nH]c5ccccc45)C3CC12 (centres unmarked)
Potency (nM): 31622
call: inconclusive
remark: inhibitor, single point

structure: COc1cccc(C2C=C(c3ccc(Br)s3)Nc3ncnn32)c1OC (centres unmarked)
Potency (nM): 39810
call: inconclusive
remark: inhibitor, single point

The last 3 entries again:

structure,Potency (nM),call,remark
COCCn1c(=O)cnc2cnc(N3CCNCC3)nc21,31622,active,-
COC(=O)C1=COC(C)C2CN3CCc4c([nH]c5ccccc45)C3CC12 (centres unmarked),31622,inconclusive,"inhibitor, single point"
COc1cccc(C2C=C(c3ccc(Br)s3)Nc3ncnn32)c1OC (centres unmarked),39810,inconclusive,"inhibitor, single point"